Laboratory results reported in the supplement of paper PMC8732350.
Where a name gives a salt, the structure may show the parent alone. ± gives the standard deviation of the averaged measurements. This is one part of the list. Most values lie within the scatter of the assay; repeated measurements hardly agree.

These compounds were tested on A549 (assay: surface PD-L1 immunofluorescence intensity relative to IFN-gamma-only control (ratio); higher = more PD-L1 expression). Conditions: 10 µM; exposure time 24 h; IFN-gamma 100 ng/mL.
`O=C(O)CCCc1c[nH]c2ccccc12` [3-Indolebutyric acid (IBA)] was tested, and the “surface PD-L1 immunofluorescence intensity” value was 1.07.
For `O=C(c1cc(Cc2n[nH]c(=O)c3ccccc23)ccc1F)N1CCN(C(=O)C2CC2)CC1` [Olaparib (AZD2281)], the “surface PD-L1 immunofluorescence intensity” value was 1.01.
For `CC(C)[C@@H](C)/C=C/[C@@H](C)[C@H]1CC[C@H]2C3=CC=C4C[C@@H](O)CC[C@]4(C)[C@H]3CC[C@]12C` [Ergosterol], the “surface PD-L1 immunofluorescence intensity” value was 1.02.
For `O=C1c2ccccc2C(=O)C1c1ccccc1` [Phenindione], the “surface PD-L1 immunofluorescence intensity” value was 1.04.
With `CCCCCCCCOC(=O)/C=C/c1ccc(O)c(O)c1` [n-Octyl caffeate] the “surface PD-L1 immunofluorescence intensity” value was 0.998.
In the case of `O=C(O)CCc1nc(-c2ccccc2)c(-c2ccccc2)o1` [Oxaprozin], the “surface PD-L1 immunofluorescence intensity” value is reported as 1.01.
In the case of `CC[C@H]1OC(=O)[C@H](C)[C@@H](O[C@H]2C[C@@](C)(OC)[C@@H](O)[C@H](C)O2)[C@H](C)[C@@H](O[C@@H]2O[C@H](C)C[C@H](N(C)C)[C@H]2O)[C@](C)(O)C[C@@H](C)C(=O)[C@H](C)[C@@H](O)[C@]1(C)O` [Erythromycin (E-Mycin)], the “surface PD-L1 immunofluorescence intensity” value is reported as 0.91.
`OC[C@@H](O)[C@@H](O)[C@H](O)[C@H](O)CO` [D-Mannitol (Osmitrol)] was tested, and the “surface PD-L1 immunofluorescence intensity” value was 1.13.
For `C=CCc1ccc(O)c(OC)c1` [Eugenol], the “surface PD-L1 immunofluorescence intensity” value was 0.963.
In the case of `CC(=O)OCC(=O)NCCCOc1cccc(CN2CCCCC2)c1` [Roxatidine Acetate HCl], the “surface PD-L1 immunofluorescence intensity” value is reported as 1.06.
`CCn1cc(C(=O)O)c(=O)c2cc(F)c(N3CCNCC3)nc21` [Enoxacin] was tested, and the “surface PD-L1 immunofluorescence intensity” value was 1.11.
For `C[C@H](NCc1ccc(OCc2cccc(F)c2)cc1)C(N)=O`, the “surface PD-L1 immunofluorescence intensity” value was 1.09.
For `Oc1ccc(C2CNCCc3c2cc(O)c(O)c3Cl)cc1` (stereo not given) [Fenoldopam hydrochloride], the “surface PD-L1 immunofluorescence intensity” value was 0.929.
For `CC(C(=O)O)c1cccc(Oc2ccccc2)c1` (stereo not given) [Fenoprofen calcium hydrate], the “surface PD-L1 immunofluorescence intensity” value was 1.03.
`CC(C(=O)O)c1cccc(Oc2ccccc2)c1` (stereo not given) [Fenoprofen calcium salt dihydrate] was tested, and the “surface PD-L1 immunofluorescence intensity” value was 0.995.
In the case of `C[C@@H]1CN(CCCn2c3ccccc3c3ccccc32)C[C@H](C)N1` [Rimcazole dihydrochloride], the “surface PD-L1 immunofluorescence intensity” value is reported as 0.928.
In the case of `NCC1CCC(C(=O)N[C@@H](Cc2ccccc2)C(=O)Nc2ccc(CC(=O)O)cc2)CC1` (stereo not given in full), the “surface PD-L1 immunofluorescence intensity” value is reported as 1.06.
With `O=C1NC(=O)C(c2ccccc2[N+](=O)[O-])=C1Nc1ccc(O)c(Cl)c1` the “surface PD-L1 immunofluorescence intensity” value was 0.946.
In the case of `OC[C@H]1OC(O)[C@H](O)[C@@H](O)[C@@H]1O` (stereo partly drawn) [Dextrose (D-glucose)], the “surface PD-L1 immunofluorescence intensity” value is reported as 1.09.
With `CCCc1ncc(C[n+]2ccccc2C)c(N)n1` [Amprolium hydrochloride] the “surface PD-L1 immunofluorescence intensity” value was 0.866.
In the case of `O=C1NC(=O)/C(=C/c2ccc3nccc(-c4ccncc4)c3c2)S1`, the “surface PD-L1 immunofluorescence intensity” value is reported as 0.958.
In the case of `CN1Cc2c(C(=O)OC(C)(C)C)ncn2-c2ccsc2C1=O`, the “surface PD-L1 immunofluorescence intensity” value is reported as 0.934.
With `N#C/C(=C\c1ccc(O)c(O)c1)C(=O)Nc1ccccc1` the “surface PD-L1 immunofluorescence intensity” value was 0.946.
In the case of `CCCC[P+](CCCC)(CCCC)Cc1ccc(NC(=O)C(Cc2ccc3ccccc3c2)NC(=NC2CCCCC2)NC2CCCCC2)cc1` (stereo not given), the “surface PD-L1 immunofluorescence intensity” value is reported as 1.08.
`Nc1ccc(S(=O)(=O)NC(=O)c2ccccc2)cc1` [Sulfabenzamide] was tested, and the “surface PD-L1 immunofluorescence intensity” value was 0.97.
With `C=C(CC)C(=O)c1ccc(OCC(=O)O)c(Cl)c1Cl` [Ethacrynic acid] the “surface PD-L1 immunofluorescence intensity” value was 0.85.
With `CC(C)c1nc(N(C)S(C)(=O)=O)nc(-c2ccc(F)cc2)c1/C=C/[C@@H](O)C[C@@H](O)CC(=O)O` [Rosuvastatin calcium (Crestor)] the “surface PD-L1 immunofluorescence intensity” value was 1.1.
In the case of `O=C(COc1cccc2c(=O)[nH]ccc12)c1ccccc1`, the “surface PD-L1 immunofluorescence intensity” value is reported as 0.959.
In the case of `O=C(O)Cn1c(C(=O)Nc2nc(-c3ccccc3Cl)cs2)cc2ccccc21`, the “surface PD-L1 immunofluorescence intensity” value is reported as 0.918.
With `CS(=O)(=O)c1ccc([C@@H](O)[C@@H](CF)NC(=O)C(Cl)Cl)cc1` [Florfenicol] the “surface PD-L1 immunofluorescence intensity” value was 0.987.
With `CCN(CC)CCCC(C)Nc1ccnc2cc(Cl)ccc12` (stereo not given) [Chloroquine diphosphate] the “surface PD-L1 immunofluorescence intensity” value was 0.997.
For `CCN(CC)CCCC(C)Nc1ccnc2cc(Cl)ccc12` (stereo not given) [Chloroquine], the “surface PD-L1 immunofluorescence intensity” value was 1.03.
With `CNc1ncnc2c1ncn2[C@@H]1O[C@H](CO)[C@@H](O)[C@H]1O` [N6-methyladenosine] the “surface PD-L1 immunofluorescence intensity” value was 1.4.
In the case of `CC(C)OC(=O)C(C(=O)OC(C)C)=C1SC=CS1` [Malotilate], the “surface PD-L1 immunofluorescence intensity” value is reported as 1.03.
In the case of `OCC(O)CN1CCN(c2ccccc2)CC1` (racemic) [Dropropizine (R,S)], the “surface PD-L1 immunofluorescence intensity” value is reported as 0.862.
With `O=C(c1ccc(F)cc1)C1CCN(CCCCc2ccccc2)CC1` [4-(4-Fluorobenzoyl)-1-(4-phenylbutyl)-piperidine oxalate] the “surface PD-L1 immunofluorescence intensity” value was 1.02.
In the case of `CC(C)(C)C(=O)OCOC(=O)[C@@H]1N2C(=O)[C@@H](/N=C/N3CCCCCC3)[C@H]2SC1(C)C` [Pivmecillinam hydrochloride], the “surface PD-L1 immunofluorescence intensity” value is reported as 1.04.
For `C[C@@H](O)[C@H]1C(=O)N2C(C(=O)O)=C(SCCNC=N)C[C@H]12` [Imipenem], the “surface PD-L1 immunofluorescence intensity” value was 0.984.
In the case of `c1ccc2c(c1)CCCC2C1=NCCN1` (stereo not given) [Tetrahydrozoline hydrochloride], the “surface PD-L1 immunofluorescence intensity” value is reported as 1.06.
In the case of `CN=c1nc(-c2ccccc2)n(-c2ccccc2)s1`, the “surface PD-L1 immunofluorescence intensity” value is reported as 0.946.
In the case of `O=C1NCCN1c1ncc([N+](=O)[O-])s1` [Niridazole], the “surface PD-L1 immunofluorescence intensity” value is reported as 1.
`C[Se]CC[C@H](N)C(=O)O` [Selenomethionine] was tested, and the “surface PD-L1 immunofluorescence intensity” value was 0.974.
For `O=C(O)C1=C[C@@H](O)[C@@H](O)[C@H](O)C1` [Shikimic acid (Shikimate)], the “surface PD-L1 immunofluorescence intensity” value was 1.08.
With `C1N2CN3CN1CN(C2)C3` [Methenamine] the “surface PD-L1 immunofluorescence intensity” value was 0.959.
For `CCCCCN(C)CCC(O)(P(=O)(O)O)P(=O)(O)O` [Ibandronate sodium], the “surface PD-L1 immunofluorescence intensity” value was 1 ± 0.089.
`C=C1CC[C@H](O)C/C1=C/C=C1\CCC[C@]2(C)[C@@H]([C@H](C)CCCC(C)C)CC[C@@H]12` [Vitamin D3 (Cholecalciferol)] was tested, and the “surface PD-L1 immunofluorescence intensity” value was 1.
For `CC(C)(O)[C@H]1CC[C@@](C)([C@H]2[C@@H](O)C[C@@]3(C)[C@@H]4C[C@H](O[C@@H]5O[C@H](CO)[C@@H](O)[C@H](O)[C@H]5O)[C@H]5C(C)(C)[C@@H](O[C@@H]6OC[C@@H](O)[C@H](O)[C@H]6O)CC[C@@]56C[C@@]46CC[C@]23C)O1` [Astragaloside A], the “surface PD-L1 immunofluorescence intensity” value was 1.08.
`NNCCc1ccccc1` [Phenelzine sulfate] was tested, and the “surface PD-L1 immunofluorescence intensity” value was 0.949.
In the case of `CC(=O)S[C@@H]1CC2=CC(=O)CC[C@]2(C)[C@H]2CC[C@@]3(C)[C@@H](CC[C@@]34CCC(=O)O4)[C@H]12` [Spironolactone], the “surface PD-L1 immunofluorescence intensity” value is reported as 0.862 ± 0.048.
For `CCCc1cc(C(N)=S)ccn1` [Prothionamide], the “surface PD-L1 immunofluorescence intensity” value was 0.972.
For `CC(=O)Nc1ccc(C(=O)Nc2ccccc2N)cc1`, the “surface PD-L1 immunofluorescence intensity” value was 1.06.
With `CC(Cc1cccc(C(F)(F)F)c1)NCCOC(=O)c1ccccc1` (stereo not given) [Benfluorex hydrochloride] the “surface PD-L1 immunofluorescence intensity” value was 0.912.
With `COC(=O)[C@@H](N)CSC/C=C(\C)CC/C=C(\C)CCC=C(C)C` [S-Farnesyl-L-cysteine methyl ester] the “surface PD-L1 immunofluorescence intensity” value was 1.06.
For `CN1CCC(=C2c3ccccc3C=Cc3ccccc32)CC1` [Cyproheptadine hydrochloride], the “surface PD-L1 immunofluorescence intensity” value was 1.01 ± 0.042.
In the case of `CC(C)(C)NC[C@@H](O)COc1cccc2c1CCCC2=O` [(+) -Levobunolol hydrochloride], the “surface PD-L1 immunofluorescence intensity” value is reported as 1.03.
In the case of `CO[C@H]1/C=C/O[C@@]2(C)Oc3c(C)c(O)c4c(O)c(c(/C=N/N5CCN(C6CCCC6)CC5)c(O)c4c3C2=O)NC(=O)/C(C)=C\C=C\[C@H](C)[C@H](O)[C@@H](C)[C@@H](O)[C@@H](C)[C@H](OC(C)=O)[C@@H]1C` [Rifapentine], the “surface PD-L1 immunofluorescence intensity” value is reported as 1.05.
For `CO[C@H]1/C=C/O[C@@]2(C)Oc3c(C)c(O)c4c(O)c(c(/C=N/N5CCN(C6CCCC6)CC5)c(O)c4c3C2=O)NC(=O)/C(C)=C\C=C\[C@H](C)[C@H](O)[C@@H](C)[C@@H](O)[C@@H](C)[C@H](OC(C)=O)[C@@H]1C` [Rifapentine (Priftin)], the “surface PD-L1 immunofluorescence intensity” value was 1.09.
With `N=C(N)NC(=N)NCCc1ccccc1` [Phenformin hydrochloride] the “surface PD-L1 immunofluorescence intensity” value was 1.06 ± 0.083.
In the case of `C[C@H]1O[C@H](O[C@H]2[C@H](O)[C@@H](O)[C@@H](O[C@H]3[C@H](O)[C@@H](O)C(O)O[C@@H]3CO)O[C@@H]2CO)[C@H](O)[C@@H](O)[C@@H]1N[C@H]1C=C(CO)[C@@H](O)[C@H](O)[C@H]1O` (stereo not given in full) [Acarbose], the “surface PD-L1 immunofluorescence intensity” value is reported as 0.974 ± 0.04.
`CC(C)(C=O)Cc1cc(C(C)(C)C)c(O)c(C(C)(C)C)c1` was tested, and the “surface PD-L1 immunofluorescence intensity” value was 1.01.
`Nc1ccc(CC(CC(=O)O)C(=O)O)cc1` [4-Amino-D, L-benzylsuccinic acid] was tested, and the “surface PD-L1 immunofluorescence intensity” value was 1.01.
For `Cn1c(CNc2ccc(C(=N)N)cc2)nc2cc(C(=O)N(CCC(=O)O)c3ccccn3)ccc21` [BIBR 953 (Dabigatran etexilate, Pradaxa)], the “surface PD-L1 immunofluorescence intensity” value was 1.01.
For `CNC1CCCN(c2c(F)cc3c(=O)c(C(=O)O)cn(C4CC4)c3c2OC)C1` (stereo not given) [Balofloxacin], the “surface PD-L1 immunofluorescence intensity” value was 1.1.
`Cc1cn[nH]c1` [Fomepizole] was tested, and the “surface PD-L1 immunofluorescence intensity” value was 1.15.
With `NCCc1c[nH]cn1` [Histamine dihydrochloride] the “surface PD-L1 immunofluorescence intensity” value was 1.
For `Cc1ccc(-c2csc3ncnc(SCCC(=O)O)c23)cc1`, the “surface PD-L1 immunofluorescence intensity” value was 0.911.
With `CCCOc1cc(N)ccc1C(=O)OCCN(CC)CC` [Propoxycaine hydrochloride] the “surface PD-L1 immunofluorescence intensity” value was 1.01.
In the case of `OC(Cn1cncn1)(Cn1cncn1)c1ccc(F)cc1F` [Fluconazole], the “surface PD-L1 immunofluorescence intensity” value is reported as 1.11.
With `Nc1[nH]cnc2ncnc1-2` [Adenine] the “surface PD-L1 immunofluorescence intensity” value was 1.17.
For `Nc1[nH]cnc2ncnc1-2` [Adenine sulfate], the “surface PD-L1 immunofluorescence intensity” value was 1.12.
In the case of `C[C@@H](NCCCc1cccc(C(F)(F)F)c1)c1cccc2ccccc12` [AMG-073 HCl (Cinacalcet HCl)], the “surface PD-L1 immunofluorescence intensity” value is reported as 1.02.
For `CC[N+](C)(C)c1cccc(O)c1` [Edrophonium chloride], the “surface PD-L1 immunofluorescence intensity” value was 0.827.
In the case of `NS(=O)(=O)c1cc(C2(O)NC(=O)c3ccccc32)ccc1Cl` (stereo not given) [Chlorthalidone], the “surface PD-L1 immunofluorescence intensity” value is reported as 1.08.
`C=CC(N)CCC(=O)O` (stereo not given) [Vigabatrin] was tested, and the “surface PD-L1 immunofluorescence intensity” value was 1.08.
With `CCCCCCCCCCCCCCCC(=O)OC/C=C(C)/C=C/C=C(C)/C=C/C1=C(C)CCCC1(C)C` [Retinyl palmitate] the “surface PD-L1 immunofluorescence intensity” value was 0.81.
